From paper PMC5735978 come the findings set out here.

By UniProt entry, the sequences of proteins in these tests, tags left out.
UniProt P31946: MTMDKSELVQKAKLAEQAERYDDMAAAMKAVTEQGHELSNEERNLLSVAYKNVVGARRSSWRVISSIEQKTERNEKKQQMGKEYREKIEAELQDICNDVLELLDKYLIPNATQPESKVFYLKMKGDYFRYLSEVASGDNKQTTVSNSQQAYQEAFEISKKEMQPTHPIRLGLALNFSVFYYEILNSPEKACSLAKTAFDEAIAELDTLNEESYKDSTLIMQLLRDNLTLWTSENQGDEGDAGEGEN
UniProt P62258: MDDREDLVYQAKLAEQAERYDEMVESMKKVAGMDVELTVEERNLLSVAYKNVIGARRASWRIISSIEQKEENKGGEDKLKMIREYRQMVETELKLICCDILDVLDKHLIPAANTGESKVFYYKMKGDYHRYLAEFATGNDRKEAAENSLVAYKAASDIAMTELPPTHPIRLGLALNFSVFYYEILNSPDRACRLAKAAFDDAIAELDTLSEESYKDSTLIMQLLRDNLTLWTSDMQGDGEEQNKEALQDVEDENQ
UniProt P63104: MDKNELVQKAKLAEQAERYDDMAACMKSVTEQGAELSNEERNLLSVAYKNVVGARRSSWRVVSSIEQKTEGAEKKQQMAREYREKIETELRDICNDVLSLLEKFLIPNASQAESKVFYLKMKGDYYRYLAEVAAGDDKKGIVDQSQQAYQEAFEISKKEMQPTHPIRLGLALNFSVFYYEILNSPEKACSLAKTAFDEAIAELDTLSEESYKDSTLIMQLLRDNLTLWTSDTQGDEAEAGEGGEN

Assay in all cases: affinity purification with mass spectrometry; 3xFlag-PAK6 variants immunoprecipitated from transfected HEK293T lysates with anti-Flag M2 agarose; SDS-PAGE, Coomassie staining; doublet around 25 kDa identified by LC-MS/MS
The target of assay [1] is 3xFlag-PAK6 wild-type (UniProt Q9NQU5).
Assay [2] addresses 3xFlag-PAK6 S531N (UniProt Q9NQU5).
Assay [3] concerns the target T1, 3xFlag-PAK6 K436M (UniProt Q9NQU5).
T1 sequence: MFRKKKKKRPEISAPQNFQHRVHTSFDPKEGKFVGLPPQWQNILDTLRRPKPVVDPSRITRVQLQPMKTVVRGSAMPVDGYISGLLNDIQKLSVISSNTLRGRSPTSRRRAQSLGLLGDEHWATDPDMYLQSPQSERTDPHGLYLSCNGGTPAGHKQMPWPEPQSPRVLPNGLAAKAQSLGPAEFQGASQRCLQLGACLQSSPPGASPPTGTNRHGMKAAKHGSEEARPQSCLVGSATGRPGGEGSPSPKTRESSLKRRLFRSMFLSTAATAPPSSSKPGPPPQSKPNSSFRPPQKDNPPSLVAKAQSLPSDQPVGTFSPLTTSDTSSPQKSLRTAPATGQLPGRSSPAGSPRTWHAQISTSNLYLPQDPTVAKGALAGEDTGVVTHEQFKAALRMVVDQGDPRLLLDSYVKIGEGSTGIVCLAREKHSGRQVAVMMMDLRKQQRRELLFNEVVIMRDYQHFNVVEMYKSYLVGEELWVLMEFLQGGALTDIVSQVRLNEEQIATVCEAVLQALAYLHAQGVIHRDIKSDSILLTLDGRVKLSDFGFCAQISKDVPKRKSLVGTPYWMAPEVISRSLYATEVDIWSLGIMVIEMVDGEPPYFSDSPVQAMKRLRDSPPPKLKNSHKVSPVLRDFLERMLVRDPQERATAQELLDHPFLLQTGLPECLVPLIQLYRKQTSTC

No constants are given. Whether binding was seen depends on the method and setting. In cells and extracts the contact can be indirect. A yes stands for co-enrichment or nearness to the bait. Other partners may have been found. For part of these data: A no says only that the protein was not detected with the bait. For part of these data: Where a sequence is shown, tags or fusion partners need not be part of it.

For “14-3-3 beta (endogenous, HEK293T) (from UniProt P31946 1-246)”, the binding result is recorded as “binds” in assay [1], “binds” in assay [2] and “no binding” in assay [3].

In the case of “14-3-3 epsilon (endogenous, HEK293T) (from UniProt P62258 1-255)”, the binding entry was “binds” in assay [1], “binds” in assay [2] and “no binding” in assay [3].

On to “14-3-3 zeta (endogenous, HEK293T) (from UniProt P63104 1-245)”, for which the binding entry in assay [1] is listed as “binds”; in assay [2], “binds”; in assay [3] it was “no binding”.
